This data set in a line: general procedure: Fmoc solid-phase peptide synthesis; Fmoc-Rink-Amide MBHA resin, 0.71 mmol/g. The settings on record: whole synthesis; for isolated yield: overall.
The mark [1] stands for this setting: scale of the general procedure 0.33 mmol.

For “(4-amino-3-Br)-D-Phe-c[Cys-(3-Br)-Tyr-D-Trp-Lys-Val-Cys]-Thr-NH2”, under “scale 0.5 mmol”, the isolated yield worked out at 2.40%, the crude mass came to 262 mg and the isolated mass turned out to be 6.3 mg.
Take “(4-amino-3-Cl)-D-Phe-c[Cys-(3-Cl)-Tyr-D-Trp-Lys-Val-Cys]-Thr-NH2”: the crude mass is 313 mg and the isolated mass was determined as 19.1 mg. Besides, under setting [1], the isolated yield amounted to 6.1%.
“(4-amino-3-Cl)-D-Phe-c[Cys-(3-I)-Tyr-D-Trp-Lys-Val-Cys]-Thr-NH2 [Compound 2]” returned a crude mass of 293 mg and an isolated mass of 13.76 mg. The substance further yielded an isolated yield under setting [1] of 4.7%.
Turning to “(4-amino-3-F)-D-Phe-c[Cys-(3-F)-Tyr-D-Trp-Lys-Val-Cys]-Thr-NH2”, under “scale 0.5 mmol”, the isolated yield is given as 3.15%, the crude mass came to 285 mg and the isolated mass is listed as 9.45 mg.
With “(4-amino-3-I)-D-Phe-c[Cys-(3-Cl)-Tyr-D-Trp-Lys-Val-Cys]-Thr-NH2 [Compound 1]”, the crude mass stood at 305 mg and the isolated mass is given as 14.5 mg. In addition, the isolated yield under setting [1] turned out to be 4.75%.

The values above are taken from patent US20260053958A1 (GRAFTON THERAPEUTICS SÀRL, priority 2022, published 2026).
